# Test results: article PMC4703084
# The chains behind the UniProt entries cited, without tags or fusion partners.
# UniProt Q7KNM2: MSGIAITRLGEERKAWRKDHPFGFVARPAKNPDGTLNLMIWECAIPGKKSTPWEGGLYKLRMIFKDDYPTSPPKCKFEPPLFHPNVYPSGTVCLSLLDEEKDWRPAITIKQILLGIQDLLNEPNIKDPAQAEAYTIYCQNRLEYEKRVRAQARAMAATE
# No constants are given. Whether binding was seen depends on the method and setting. Some binding calls cover weakened binding; strength is not graded here.
# T1: Vilya (Drosophila melanogaster) (UniProt O76908)
# T1 sequence: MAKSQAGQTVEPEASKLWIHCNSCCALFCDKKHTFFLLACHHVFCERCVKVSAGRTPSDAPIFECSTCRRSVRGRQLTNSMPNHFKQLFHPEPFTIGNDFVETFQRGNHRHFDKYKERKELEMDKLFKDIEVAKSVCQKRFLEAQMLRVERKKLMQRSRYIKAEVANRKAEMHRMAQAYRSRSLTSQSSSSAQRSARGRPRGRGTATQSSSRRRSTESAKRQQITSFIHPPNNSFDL
# T2: Vilya^826 (Drosophila melanogaster) (UniProt O76908)
# T2 sequence: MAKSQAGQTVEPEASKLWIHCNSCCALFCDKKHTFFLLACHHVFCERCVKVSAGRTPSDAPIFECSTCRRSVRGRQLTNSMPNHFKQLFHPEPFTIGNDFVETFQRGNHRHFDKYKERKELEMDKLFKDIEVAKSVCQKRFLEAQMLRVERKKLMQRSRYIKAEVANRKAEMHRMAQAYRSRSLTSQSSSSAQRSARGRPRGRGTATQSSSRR
# B1: Mei-P22 (protein, UniProt Q9VS36 1-331)
# chain: MDRTTVVPSPASTYCSFMGGSQHSPLRRSQRLIDKENRDLQKIPPKSLSPQLFGNTEDDYSELLLQQGKVVHLKPAAKLVPVRSSDNLVHLGSRDKVVPLKTSNRIVHLKPPYKIIHLKSLDEVEKTVKKKNNIQKEVHQRNSQRRSIQCTPKKRGRKPKQPAKKLQSRISTDQLGSTPSPSKLPAKYPAHFVHQLPPAEDSSCATRRRSLSAPAMQLSDLSLTPDEIQTPERRGEIVNKSPSDLDSDVSLNFSLSDSIGEIFGTKDISSILTMQRPRQYILLEEHLPTLATMLNVDLERLRCVLDITQGLSHEQILRFPIKHEEDELEVP
# Legend:
# [1] = molecular target: T1, Vilya (Drosophila melanogaster); assay: two-hybrid; preliminary studies, yeast two-hybrid, no details given
# [2] = molecular target: T1, Vilya (Drosophila melanogaster); assay: two-hybrid; Matchmaker Gold system (Clontech), AH109 used in place of Y2HGold, Y187 for the bait; bait and prey vectors pGBKT7 and pGADT7; Vilya forms as bait; diploids equalised by OD600, six two-fold dilutions plated on SD -Leu-Trp and on the reporter plate SD -Leu-Trp-Ade-His + X-alpha-gal
# [3] = molecular target: T2, Vilya^826 (Drosophila melanogaster); assay: as above
Molecule,binding [1],binding [2],binding [3]
Drosophila Ubc9 (from UniProt Q7KNM2 1-159) (enzyme),no binding,–,–
B1,–,binds,binds
